Assay [1] addresses M2 pyruvate kinase (PKM2) (human (endogenous in adipose-derived MSCs and CAFs)) (UniProt P14618). In words: co-IP; immunoprecipitation kit (ab206996, Abcam); antibodies to endogenous NF-κB P65, PKM2 or P300, IgG isotype control; whole-cell lysates of MSCs and of CAFs (AGS exosome treated); western blot. On the technique in general: A western blot detects proteins with antibodies after separation by electrophoresis.

Sequences of proteins named here, by UniProt entry; tags and fusion partners are left off.
UniProt P14618: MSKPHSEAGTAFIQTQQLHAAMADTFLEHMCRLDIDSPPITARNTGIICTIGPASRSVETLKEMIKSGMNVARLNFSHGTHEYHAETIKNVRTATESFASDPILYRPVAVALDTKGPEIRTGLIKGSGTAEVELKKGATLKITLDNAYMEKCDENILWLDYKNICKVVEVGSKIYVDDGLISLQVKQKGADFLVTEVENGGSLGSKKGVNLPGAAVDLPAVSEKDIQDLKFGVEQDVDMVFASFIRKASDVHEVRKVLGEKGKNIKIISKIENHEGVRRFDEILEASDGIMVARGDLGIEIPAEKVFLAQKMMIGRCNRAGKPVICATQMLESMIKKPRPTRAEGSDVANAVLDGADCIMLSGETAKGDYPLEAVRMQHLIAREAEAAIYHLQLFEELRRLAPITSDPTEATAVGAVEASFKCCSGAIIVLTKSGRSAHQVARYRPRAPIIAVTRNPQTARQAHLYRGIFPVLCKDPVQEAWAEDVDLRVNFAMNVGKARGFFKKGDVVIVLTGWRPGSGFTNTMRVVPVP
UniProt Q04206: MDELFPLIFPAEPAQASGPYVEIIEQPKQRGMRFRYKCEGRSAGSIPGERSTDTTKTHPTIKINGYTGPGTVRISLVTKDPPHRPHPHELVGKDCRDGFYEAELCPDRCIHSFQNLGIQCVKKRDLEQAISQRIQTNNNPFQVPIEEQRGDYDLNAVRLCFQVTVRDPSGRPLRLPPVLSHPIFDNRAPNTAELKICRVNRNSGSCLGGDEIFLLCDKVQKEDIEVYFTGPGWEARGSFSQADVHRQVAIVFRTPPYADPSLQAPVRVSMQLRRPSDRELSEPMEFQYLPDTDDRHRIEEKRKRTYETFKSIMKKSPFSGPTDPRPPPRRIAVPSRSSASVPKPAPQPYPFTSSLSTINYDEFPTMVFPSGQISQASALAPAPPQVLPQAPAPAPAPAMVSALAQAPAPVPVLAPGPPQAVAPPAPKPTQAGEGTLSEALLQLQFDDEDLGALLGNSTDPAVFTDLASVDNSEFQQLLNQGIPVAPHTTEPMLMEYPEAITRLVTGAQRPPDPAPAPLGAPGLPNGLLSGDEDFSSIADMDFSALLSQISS
UniProt Q09472: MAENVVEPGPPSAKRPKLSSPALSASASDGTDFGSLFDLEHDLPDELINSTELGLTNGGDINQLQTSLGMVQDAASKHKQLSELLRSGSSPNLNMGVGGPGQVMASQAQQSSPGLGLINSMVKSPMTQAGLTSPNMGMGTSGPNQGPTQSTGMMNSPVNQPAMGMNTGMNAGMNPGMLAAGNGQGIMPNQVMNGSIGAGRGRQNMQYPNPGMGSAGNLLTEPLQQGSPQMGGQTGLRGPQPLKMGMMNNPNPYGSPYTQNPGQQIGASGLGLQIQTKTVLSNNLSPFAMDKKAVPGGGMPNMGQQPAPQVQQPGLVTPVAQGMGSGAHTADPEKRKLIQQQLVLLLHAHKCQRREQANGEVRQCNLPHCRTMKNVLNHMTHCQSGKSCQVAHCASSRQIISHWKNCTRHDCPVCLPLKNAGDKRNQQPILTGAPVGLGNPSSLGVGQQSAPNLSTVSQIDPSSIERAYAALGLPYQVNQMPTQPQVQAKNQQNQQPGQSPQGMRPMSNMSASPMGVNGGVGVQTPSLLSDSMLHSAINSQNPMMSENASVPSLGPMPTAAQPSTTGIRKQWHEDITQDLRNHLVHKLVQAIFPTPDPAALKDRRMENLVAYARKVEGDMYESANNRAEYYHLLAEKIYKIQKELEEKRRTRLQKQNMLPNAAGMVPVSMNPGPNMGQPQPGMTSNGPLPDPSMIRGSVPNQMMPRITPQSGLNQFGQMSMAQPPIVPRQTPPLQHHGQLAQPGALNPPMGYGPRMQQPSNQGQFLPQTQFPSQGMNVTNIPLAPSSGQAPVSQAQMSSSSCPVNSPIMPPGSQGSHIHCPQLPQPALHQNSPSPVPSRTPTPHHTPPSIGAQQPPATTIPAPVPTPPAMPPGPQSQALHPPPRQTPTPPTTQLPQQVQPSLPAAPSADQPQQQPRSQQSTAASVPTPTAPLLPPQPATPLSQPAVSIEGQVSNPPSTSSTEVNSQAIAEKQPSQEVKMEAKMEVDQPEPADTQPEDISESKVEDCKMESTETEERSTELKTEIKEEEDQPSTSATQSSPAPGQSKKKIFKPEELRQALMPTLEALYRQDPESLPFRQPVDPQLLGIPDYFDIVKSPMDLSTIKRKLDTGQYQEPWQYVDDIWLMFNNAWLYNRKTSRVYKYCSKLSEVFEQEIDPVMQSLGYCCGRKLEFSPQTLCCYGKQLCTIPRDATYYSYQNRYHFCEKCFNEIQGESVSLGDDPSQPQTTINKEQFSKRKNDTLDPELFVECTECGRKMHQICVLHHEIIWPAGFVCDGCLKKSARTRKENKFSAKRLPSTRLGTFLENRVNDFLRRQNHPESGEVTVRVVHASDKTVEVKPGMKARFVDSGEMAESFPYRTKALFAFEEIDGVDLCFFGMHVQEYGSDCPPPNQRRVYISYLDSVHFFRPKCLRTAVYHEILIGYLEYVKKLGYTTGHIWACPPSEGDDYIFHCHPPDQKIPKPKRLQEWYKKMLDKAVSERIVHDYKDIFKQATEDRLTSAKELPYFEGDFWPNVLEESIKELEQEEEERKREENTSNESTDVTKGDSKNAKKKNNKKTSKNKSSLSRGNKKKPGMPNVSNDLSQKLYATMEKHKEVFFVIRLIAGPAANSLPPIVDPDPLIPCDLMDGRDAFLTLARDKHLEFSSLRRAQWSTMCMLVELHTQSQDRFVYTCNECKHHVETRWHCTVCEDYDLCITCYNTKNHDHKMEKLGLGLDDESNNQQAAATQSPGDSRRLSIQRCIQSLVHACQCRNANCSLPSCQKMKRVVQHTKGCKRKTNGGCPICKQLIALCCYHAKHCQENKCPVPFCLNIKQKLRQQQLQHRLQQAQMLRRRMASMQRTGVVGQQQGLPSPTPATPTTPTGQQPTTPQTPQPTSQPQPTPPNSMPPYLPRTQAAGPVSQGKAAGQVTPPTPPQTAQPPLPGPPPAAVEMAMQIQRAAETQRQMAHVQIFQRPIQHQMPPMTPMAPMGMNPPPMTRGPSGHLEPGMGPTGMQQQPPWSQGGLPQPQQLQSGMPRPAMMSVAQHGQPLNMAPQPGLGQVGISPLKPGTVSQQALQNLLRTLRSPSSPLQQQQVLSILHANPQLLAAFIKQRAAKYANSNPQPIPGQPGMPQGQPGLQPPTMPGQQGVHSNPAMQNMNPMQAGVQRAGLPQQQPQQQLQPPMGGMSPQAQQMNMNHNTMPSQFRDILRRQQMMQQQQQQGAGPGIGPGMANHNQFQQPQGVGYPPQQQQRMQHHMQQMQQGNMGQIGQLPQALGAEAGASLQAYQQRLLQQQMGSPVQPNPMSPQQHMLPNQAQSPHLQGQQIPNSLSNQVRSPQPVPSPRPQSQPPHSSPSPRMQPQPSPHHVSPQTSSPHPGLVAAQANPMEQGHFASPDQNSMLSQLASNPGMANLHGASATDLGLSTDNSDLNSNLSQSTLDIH

Assay [2] concerns the target NF-κB P65 (human (endogenous in adipose-derived MSCs and CAFs)) (UniProt Q04206). In words: co-IP; co-IP from purified nuclear proteins of the cells (Supplementary Fig. 6); immunoprecipitation kit (ab206996, Abcam).
Assay [3] shares this target. The assay can be described thus: co-IP; immunoprecipitation kit (ab206996, Abcam); antibodies to endogenous NF-κB P65, PKM2 or P300, IgG isotype control; whole-cell lysates of MSCs and of CAFs (AGS exosome treated); western blot.
In assay [4] the target is histone acetyltransferase P300 (human (endogenous in adipose-derived MSCs and CAFs)) (UniProt Q09472). The assay is described as above.

Results are given in words; binding and its absence hold for the method and conditions named. Binding seen in cells or lysates may run through a third protein. Some results given as binding are weak or reduced against the parent protein; the word gives no strength.

Take NF-κB P65 (from UniProt Q04206 1-551): in assay [1], the binding entry is “binds”.
For “M2 pyruvate kinase (PKM2) (from UniProt P14618 1-531) (enzyme)”, the binding entry in assay [2], in assay [3] and in assay [4] was “binds” in each case.

These data come from article PMC7969736.
